Results are given in words; binding and its absence hold for the method and conditions named. Binding seen in cells or lysates may run through a third protein. Some results given as binding are weak or reduced against the parent protein; the word gives no strength.

The chains behind the UniProt entries cited, without tags or fusion partners.
UniProt O35099: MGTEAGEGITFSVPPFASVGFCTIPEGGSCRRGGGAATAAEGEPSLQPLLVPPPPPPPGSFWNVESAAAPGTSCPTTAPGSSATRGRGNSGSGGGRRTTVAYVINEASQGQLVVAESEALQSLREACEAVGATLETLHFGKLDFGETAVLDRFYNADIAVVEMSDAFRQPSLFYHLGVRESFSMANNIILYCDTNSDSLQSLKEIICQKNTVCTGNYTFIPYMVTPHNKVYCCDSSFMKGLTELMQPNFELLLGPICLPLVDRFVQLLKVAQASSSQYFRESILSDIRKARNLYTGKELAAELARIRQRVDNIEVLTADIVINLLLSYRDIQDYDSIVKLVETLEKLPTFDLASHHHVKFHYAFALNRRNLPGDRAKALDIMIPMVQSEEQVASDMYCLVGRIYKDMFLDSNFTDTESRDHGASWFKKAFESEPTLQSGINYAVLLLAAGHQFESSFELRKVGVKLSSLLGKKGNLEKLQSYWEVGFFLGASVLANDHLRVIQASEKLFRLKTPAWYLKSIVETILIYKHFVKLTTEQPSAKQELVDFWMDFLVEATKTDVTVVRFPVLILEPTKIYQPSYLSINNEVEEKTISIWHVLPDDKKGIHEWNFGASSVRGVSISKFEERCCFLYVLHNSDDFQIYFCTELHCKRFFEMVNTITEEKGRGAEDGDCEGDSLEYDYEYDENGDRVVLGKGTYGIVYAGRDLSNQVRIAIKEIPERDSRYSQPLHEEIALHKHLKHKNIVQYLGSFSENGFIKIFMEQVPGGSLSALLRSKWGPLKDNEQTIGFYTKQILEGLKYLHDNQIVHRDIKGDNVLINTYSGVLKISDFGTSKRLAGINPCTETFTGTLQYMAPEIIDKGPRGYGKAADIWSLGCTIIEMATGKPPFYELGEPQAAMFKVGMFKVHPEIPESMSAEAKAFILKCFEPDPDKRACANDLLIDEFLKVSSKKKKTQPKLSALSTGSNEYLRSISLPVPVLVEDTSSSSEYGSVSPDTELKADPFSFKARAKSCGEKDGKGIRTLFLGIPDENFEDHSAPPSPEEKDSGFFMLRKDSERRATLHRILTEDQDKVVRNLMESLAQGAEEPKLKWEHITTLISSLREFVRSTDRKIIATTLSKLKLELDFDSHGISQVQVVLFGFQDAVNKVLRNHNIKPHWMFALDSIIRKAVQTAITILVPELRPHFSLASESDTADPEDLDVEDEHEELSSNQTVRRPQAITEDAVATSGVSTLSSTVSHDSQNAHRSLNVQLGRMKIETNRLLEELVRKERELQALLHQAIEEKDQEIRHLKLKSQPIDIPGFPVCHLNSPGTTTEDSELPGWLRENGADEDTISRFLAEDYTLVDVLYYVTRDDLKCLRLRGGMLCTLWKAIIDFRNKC

From paper PMC4071562 come the findings set out here.

In this experiment the target is apoptosis signal-regulating kinase 1 (ASK1) (mouse (endogenous in NSC34)) (UniProt O35099). Nature of the experiment: co-IP; lysates of NSC34 cells stably expressing Flag-tagged SOD1(WT) or SOD1(G93A) with GFP (control) or CIIA siRNA; immunoprecipitation with antibodies to ASK1 (3 h at 4°C, then 1 h with protein G-agarose), immunoblot with antibodies to TRAF2 or CIIA.

B1: TRAF2 (protein, UniProt P39429 1-501)
chain: MAAASVTSPGSLELLQPGFSKTLLGTRLEAKYLCSACKNILRRPFQAQCGHRYCSFCLTSILSSGPQNCAACVYEGLYEEGISILESSSAFPDNAARREVESLPAVCPNDGCTWKGTLKEYESCHEGLCPFLLTECPACKGLVRLSEKEHHTEQECPKRSLSCQHCRAPCSHVDLEVHYEVCPKFPLTCDGCGKKKIPRETFQDHVRACSKCRVLCRFHTVGCSEMVETENLQDHELQRLREHLALLLSSFLEAQASPGTLNQVGPELLQRCQILEQKIATFENIVCVLNREVERVAVTAEACSRQHRLDQDKIEALSNKVQQLERSIGLKDLAMADLEQKVSELEVSTYDGVFIWKISDFTRKRQEAVAGRTPAIFSPAFYTSRYGYKMCLRVYLNGDGTGRGTHLSLFFVVMKGPNDALLQWPFNQKVTLMLLDHNNREHVIDAFRPDVTSSSFQRPVSDMNIASGCPLFCPVSKMEAKNSYVRDDAIFIKAIVDLTGL
In the case of B1, the binding result is reported as “binds”.

B2: caspase-activated DNase inhibitor that interacts with ASK1 (CIIA) (protein, UniProt Q9D1C8 1-221)
chain: MFHGIPATPGVGAPGNKPELYEEVKLYKNAREREKYDNMAELFAVVKTMQALEKAYIKDCVTPNEYTAACSRLLVQYKAAFRQVQGSEISSIDEFCRKFRLDCPLAMERIKEDRPITIKDDKGNLNRCIADVVSLFITVMDKLRLEIRAMDEIQPDLRELMETMHRMSHLPPDFEGRQTVSQWLQTLSGMSASDELDDSQVRQMLFDLESAYNAFNRFLHA
As for B2, the binding result is recorded as “binds”.
